This is a selection; strong and weak results do not stand in their true shares. At the low end of the ranking the order means little.

Common to all, as to assay: DAPPL (digital affinity profiling via proximity ligation, sequencing)
Conditions in all cases: 10 mM Tris-HCl pH 7.5, 50 mM NaCl, 1 mM DTT, 4% glycerol, room temperature, 30 min; GST-TFs on glutathione beads, 16-mer random dsDNA library, 0.1% …; high values mean tight binding; double strand, one strand shown; scale: fold enrichment (6-mer frequency, TF over GST control)

The target of one experiment is T1, ELK1 (UniProt P19419).
T1 sequence: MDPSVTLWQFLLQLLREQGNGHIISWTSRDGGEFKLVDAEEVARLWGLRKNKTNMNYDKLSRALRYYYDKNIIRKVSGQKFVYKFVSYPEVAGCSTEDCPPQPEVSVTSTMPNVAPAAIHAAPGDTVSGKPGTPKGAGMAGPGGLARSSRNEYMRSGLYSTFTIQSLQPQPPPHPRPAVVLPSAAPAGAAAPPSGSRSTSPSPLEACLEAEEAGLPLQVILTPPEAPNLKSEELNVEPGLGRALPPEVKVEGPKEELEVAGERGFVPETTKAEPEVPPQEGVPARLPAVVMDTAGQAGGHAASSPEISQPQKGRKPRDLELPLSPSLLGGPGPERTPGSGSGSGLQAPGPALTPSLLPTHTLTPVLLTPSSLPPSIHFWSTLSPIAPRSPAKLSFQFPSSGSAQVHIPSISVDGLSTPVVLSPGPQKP

The target of the next experiment is T2, ELK3 (UniProt P41970).
T2 sequence: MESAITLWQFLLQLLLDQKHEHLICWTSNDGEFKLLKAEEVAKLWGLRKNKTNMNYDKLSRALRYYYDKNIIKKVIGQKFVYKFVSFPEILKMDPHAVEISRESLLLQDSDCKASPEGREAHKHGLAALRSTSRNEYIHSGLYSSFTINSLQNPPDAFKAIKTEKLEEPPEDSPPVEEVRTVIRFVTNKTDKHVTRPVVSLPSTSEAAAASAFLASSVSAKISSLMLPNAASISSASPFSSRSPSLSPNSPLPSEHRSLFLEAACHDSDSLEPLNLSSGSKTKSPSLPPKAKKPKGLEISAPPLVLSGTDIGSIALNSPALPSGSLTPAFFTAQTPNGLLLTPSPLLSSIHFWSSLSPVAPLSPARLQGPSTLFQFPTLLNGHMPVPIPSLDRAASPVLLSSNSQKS

The next experiment has as its target T3, SPIC (UniProt Q8N5J4).
T3 sequence: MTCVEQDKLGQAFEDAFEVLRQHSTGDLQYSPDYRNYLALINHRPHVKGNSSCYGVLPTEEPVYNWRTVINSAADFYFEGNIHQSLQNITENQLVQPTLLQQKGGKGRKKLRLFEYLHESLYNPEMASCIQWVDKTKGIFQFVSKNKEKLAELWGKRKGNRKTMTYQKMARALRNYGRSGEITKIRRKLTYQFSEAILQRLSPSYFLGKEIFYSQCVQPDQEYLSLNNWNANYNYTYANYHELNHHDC

Another experiment deals with T4, ETS2 (UniProt P15036).
T4 sequence: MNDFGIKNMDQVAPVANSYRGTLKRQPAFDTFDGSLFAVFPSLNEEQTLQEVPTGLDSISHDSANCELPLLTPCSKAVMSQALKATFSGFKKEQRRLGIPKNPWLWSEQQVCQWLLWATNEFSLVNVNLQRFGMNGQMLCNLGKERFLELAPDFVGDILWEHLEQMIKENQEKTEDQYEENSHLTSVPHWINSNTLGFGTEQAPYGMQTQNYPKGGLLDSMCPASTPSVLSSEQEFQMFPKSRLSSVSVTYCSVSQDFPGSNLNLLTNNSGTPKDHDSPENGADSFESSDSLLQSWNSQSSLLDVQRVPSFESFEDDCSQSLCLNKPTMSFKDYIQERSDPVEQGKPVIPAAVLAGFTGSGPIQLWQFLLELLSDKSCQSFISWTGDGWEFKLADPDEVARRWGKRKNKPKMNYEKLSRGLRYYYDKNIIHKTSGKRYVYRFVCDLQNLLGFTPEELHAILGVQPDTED

For another experiment, the target named is T5, ETV3 (UniProt P41162-2).
T5 sequence: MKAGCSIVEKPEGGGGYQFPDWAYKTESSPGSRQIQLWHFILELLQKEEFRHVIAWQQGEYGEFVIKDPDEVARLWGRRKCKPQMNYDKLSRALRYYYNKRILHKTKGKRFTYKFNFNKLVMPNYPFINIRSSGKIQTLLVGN

On to GTCTGT, for which the binding signal worked out at 0.888 with ELK1; 0.776 with ELK3; 0.967 with SPIC; 0.946 with ETS2; 0.878 with ETV3.

For TGAGAA, the binding signal with ELK1 was 0.734; with ELK3, 0.733; with SPIC, 0.673; with ETS2, 0.794; with ETV3, 0.658.

For the sequence CTGAGA, the binding signal turned out to be 0.82 in the experiment with ELK1; 0.881 in the experiment with ELK3; 0.836 in the experiment with SPIC; 0.828 in the experiment with ETS2; 0.79 with ETV3.

GTCGAT: the binding signal was 0.687 with ELK1; 0.688 in the experiment with ELK3; 0.715 in the experiment with SPIC; 0.662 with ETS2; 0.651 with ETV3.

Consider AGTCCA, for which the binding signal in the experiment with ELK1 was found to be 0.664; with ELK3 it was 0.712; in the experiment with SPIC, 0.719; with ETS2, 0.661; in the experiment with ETV3 it was 0.663.

For the sequence AGGCAT, the binding signal in the experiment with ELK1 amounted to 0.883; with ELK3, 0.697; in the experiment with SPIC it was 0.792; with ETS2 it was 0.857; with ETV3 it was 0.853.

Take GTGATA: the binding signal was found to be 0.724 in the experiment with ELK1; 0.727 with ELK3; 0.645 in the experiment with SPIC; 0.755 with ETS2; 0.691 in the experiment with ETV3.

Take ACGAGG: the binding signal in the experiment with ELK1 is 0.753; with ELK3, 0.715; in the experiment with SPIC it was 0.744; with ETS2, 0.825; in the experiment with ETV3 it was 0.755.

For CCACGG, the binding signal stood at 0.863 with ELK1; 0.942 in the experiment with ELK3; 0.944 with SPIC; 0.843 with ETS2; 0.878 in the experiment with ETV3.

In the case of GAGGAA, the binding signal with ELK1 was 0.764; with ELK3, 0.766; in the experiment with SPIC, 0.918; with ETS2, 0.843; with ETV3 it was 0.818.

GTCAGC: the binding signal in the experiment with ELK1 stood at 0.784; with ELK3, 0.767; in the experiment with SPIC it was 0.726; in the experiment with ETS2, 0.726; in the experiment with ETV3, 0.659.

Consider GAGTCG, for which the binding signal with ELK1 came to 0.222; with ELK3 it was 0.221; in the experiment with SPIC, 0.234; with ETS2, 0.231; with ETV3 it was 0.221.

For the sequence GGAGGG, the binding signal is 0.327 with ELK1; 0.309 in the experiment with ELK3; 0.346 in the experiment with SPIC; 0.324 with ETS2; 0.305 in the experiment with ETV3.

Regarding ATCGAG, the binding signal is 0.895 in the experiment with ELK1; 0.914 with ELK3; 0.951 with SPIC; 0.914 in the experiment with ETS2; 0.872 with ETV3.

For GAGCGA, the binding signal with ELK1 was determined as 0.583; with ELK3, 0.642; with SPIC, 0.573; in the experiment with ETS2, 0.66; with ETV3, 0.674.

As to CAGCCG, the binding signal in the experiment with ELK1 turned out to be 0.737; with ELK3, 0.72; in the experiment with SPIC, 0.676; with ETS2 it was 0.649; in the experiment with ETV3, 0.74.

On to CGAGTG, for which the binding signal was found to be 0.833 with ELK1; 0.74 in the experiment with ELK3; 0.822 with SPIC; 0.792 with ETS2; 0.709 in the experiment with ETV3.

On to AGCCGG, for which the binding signal with ELK1 was found to be 0.625; with ELK3 it was 0.593; in the experiment with SPIC, 0.559; with ETS2, 0.586; in the experiment with ETV3 it was 0.609.

AGAGGT: the binding signal with ELK1 was found to be 0.918; with ELK3 it was 0.813; in the experiment with SPIC, 0.696; with ETS2, 0.83; in the experiment with ETV3 it was 0.827.

As for GAAGAG, the binding signal with ELK1 was 0.928; with ELK3, 0.954; in the experiment with SPIC, 0.9; with ETS2, 0.905; with ETV3, 0.865.

As for AGGGAC, the binding signal in the experiment with ELK1 is 0.841; in the experiment with ELK3, 0.687; in the experiment with SPIC, 0.746; with ETS2, 0.806; with ETV3, 0.74.

As for GGGGAC, the binding signal with ELK1 is 0.456; in the experiment with ELK3, 0.443; with SPIC, 0.424; in the experiment with ETS2 it was 0.456; in the experiment with ETV3, 0.445.

With AAGGTG, the binding signal with ELK1 was found to be 0.947; in the experiment with ELK3, 0.783; with SPIC, 0.928; with ETS2 it was 0.922; with ETV3, 0.88.

As to AGTTGT, the binding signal with ELK1 is 0.812; with ELK3, 0.716; in the experiment with SPIC it was 0.916; with ETS2, 0.775; with ETV3, 0.755.

In the case of GTGAGT, the binding signal with ELK1 stood at 0.122; with ELK3 it was 0.119; with SPIC it was 0.134; with ETS2 it was 0.131; in the experiment with ETV3 it was 0.137.

GGTCGC: the binding signal in the experiment with ELK1 was 0.871; with ELK3 it was 0.849; with SPIC, 0.908; in the experiment with ETS2 it was 0.843; in the experiment with ETV3 it was 0.872.

For CCAGTC, the binding signal is 0.263 with ELK1; 0.245 in the experiment with ELK3; 0.281 in the experiment with SPIC; 0.256 with ETS2; 0.257 with ETV3.

AGTCTG: the binding signal with ELK1 amounted to 0.606; with ELK3, 0.537; with SPIC it was 0.623; in the experiment with ETS2, 0.576; with ETV3 it was 0.615.

In the case of TGGCGG, the binding signal stood at 0.74 with ELK1; 0.776 in the experiment with ELK3; 0.758 in the experiment with SPIC; 0.712 with ETS2; 0.773 with ETV3.

As for GGGACG, the binding signal with ELK1 is 0.476; with ELK3, 0.501; with SPIC it was 0.453; with ETS2, 0.493; with ETV3 it was 0.456.

For the origin of these results see PMC7862700.
